Data as given in PubChem BioAssay AID1259405 (NCATS, 2018).

- Purpose: 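Silenced genes that increase secreted GFP made by CHO cells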 (primary screen)
- Cells: Chinese hamster CHO-K1 ovary cells with stable secreted eGFP expression
- Reagents: single siRNA against mouse genes, 0.8 pmol siRNA per well (2 µl of 400 nM stock)
- Time to read-out: 3 days
- Detection: 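Per-well intracellular GFP measured by laser scanning cytometry, plus viability from ATP luminescence, each relative to plate median of non-targeting control wells, in %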
- Reading the numbers: GFP, % of control: higher = more GFP per well, higher productivity; viability (ATP), % of control: higher = more viable cells (more ATP)
- Call rule: 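Called active when intracellular GFP, relative to negative control, is at or above 120%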
This is an unselected part of about 50,000 reagents tested. About 4,000 of them (8%) were called active. 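Mouse siRNA library applied to hamster cells; one well for each siRNA.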 The numbers tell different reagents against one gene apart.

{"gene knocked down": "Drd3", "reagent": 1, "GFP, % of control": 38, "viability (ATP), % of control": 39.9, "Call": "inactive"}
{"gene knocked down": "Drd3", "reagent": 2, "GFP, % of control": 74.4, "viability (ATP), % of control": 69.1, "Call": "inactive"}
{"gene knocked down": "Drd3", "reagent": 3, "GFP, % of control": 71.5, "viability (ATP), % of control": 72.4, "Call": "inactive"}
{"gene knocked down": "Pkd2", "reagent": 1, "GFP, % of control": 102, "viability (ATP), % of control": 101, "Call": "inactive"}
{"gene knocked down": "Pkd2", "reagent": 2, "GFP, % of control": 107, "viability (ATP), % of control": 90.5, "Call": "inactive"}
{"gene knocked down": "Pkd2", "reagent": 3, "GFP, % of control": 104, "viability (ATP), % of control": 77.8, "Call": "inactive"}
{"gene knocked down": "Cd177", "reagent": 1, "GFP, % of control": 135, "viability (ATP), % of control": 105, "Call": "active"}
{"gene knocked down": "Cd177", "reagent": 2, "GFP, % of control": 119, "viability (ATP), % of control": 101, "Call": "inactive"}
{"gene knocked down": "Cd177", "reagent": 3, "GFP, % of control": 82.7, "viability (ATP), % of control": 65, "Call": "inactive"}
{"gene knocked down": "Mcoln1", "reagent": 1, "GFP, % of control": 119, "viability (ATP), % of control": 111, "Call": "inactive"}
{"gene knocked down": "Mcoln1", "reagent": 2, "GFP, % of control": 81.5, "viability (ATP), % of control": 63.5, "Call": "inactive"}
{"gene knocked down": "Mcoln1", "reagent": 3, "GFP, % of control": 30.2, "viability (ATP), % of control": 46.8, "Call": "inactive"}
{"gene knocked down": "Taf1c", "reagent": 1, "GFP, % of control": 60.5, "viability (ATP), % of control": 46.8, "Call": "inactive"}
{"gene knocked down": "Taf1c", "reagent": 2, "GFP, % of control": 90.8, "viability (ATP), % of control": 101, "Call": "inactive"}
{"gene knocked down": "Taf1c", "reagent": 3, "GFP, % of control": 130, "viability (ATP), % of control": 109, "Call": "active"}
{"gene knocked down": "Fkbp4", "reagent": 1, "GFP, % of control": 61.2, "viability (ATP), % of control": 75, "Call": "inactive"}
{"gene knocked down": "Fkbp4", "reagent": 2, "GFP, % of control": 117, "viability (ATP), % of control": 110, "Call": "inactive"}
{"gene knocked down": "Fkbp4", "reagent": 3, "GFP, % of control": 119, "viability (ATP), % of control": 123, "Call": "inactive"}
{"gene knocked down": "Magea13", "reagent": 1, "GFP, % of control": 40.9, "viability (ATP), % of control": 46.2, "Call": "inactive"}
{"gene knocked down": "Magea13", "reagent": 2, "GFP, % of control": 55.4, "viability (ATP), % of control": 75.3, "Call": "inactive"}
{"gene knocked down": "Magea13", "reagent": 3, "GFP, % of control": 58.1, "viability (ATP), % of control": 68, "Call": "inactive"}
{"gene knocked down": "4930486L24Rik", "reagent": 1, "GFP, % of control": 82.8, "viability (ATP), % of control": 96.5, "Call": "inactive"}
{"gene knocked down": "4930486L24Rik", "reagent": 2, "GFP, % of control": 77, "viability (ATP), % of control": 72.6, "Call": "inactive"}
{"gene knocked down": "4930486L24Rik", "reagent": 3, "GFP, % of control": 71.3, "viability (ATP), % of control": 85.2, "Call": "inactive"}
{"gene knocked down": "Zfp708", "reagent": 1, "GFP, % of control": 37.3, "viability (ATP), % of control": 33.9, "Call": "inactive"}
{"gene knocked down": "Zfp708", "reagent": 2, "GFP, % of control": 46.8, "viability (ATP), % of control": 64, "Call": "inactive"}
{"gene knocked down": "Zfp708", "reagent": 3, "GFP, % of control": 58.2, "viability (ATP), % of control": 65.6, "Call": "inactive"}

3 entries already listed, sorted by “GFP, % of control”, descending.
{"gene knocked down": "Fkbp4", "reagent": 3, "GFP, % of control": 119, "viability (ATP), % of control": 123, "Call": "inactive"}
{"gene knocked down": "Fkbp4", "reagent": 2, "GFP, % of control": 117, "viability (ATP), % of control": 110, "Call": "inactive"}
{"gene knocked down": "Magea13", "reagent": 1, "GFP, % of control": 40.9, "viability (ATP), % of control": 46.2, "Call": "inactive"}
